This is an account of results in paper PMC6953056.

Amino acid sequences for entries named in this document (tags omitted). A change or cut given only in a name is not applied to a line headed by its entry.
UniProt Q14587: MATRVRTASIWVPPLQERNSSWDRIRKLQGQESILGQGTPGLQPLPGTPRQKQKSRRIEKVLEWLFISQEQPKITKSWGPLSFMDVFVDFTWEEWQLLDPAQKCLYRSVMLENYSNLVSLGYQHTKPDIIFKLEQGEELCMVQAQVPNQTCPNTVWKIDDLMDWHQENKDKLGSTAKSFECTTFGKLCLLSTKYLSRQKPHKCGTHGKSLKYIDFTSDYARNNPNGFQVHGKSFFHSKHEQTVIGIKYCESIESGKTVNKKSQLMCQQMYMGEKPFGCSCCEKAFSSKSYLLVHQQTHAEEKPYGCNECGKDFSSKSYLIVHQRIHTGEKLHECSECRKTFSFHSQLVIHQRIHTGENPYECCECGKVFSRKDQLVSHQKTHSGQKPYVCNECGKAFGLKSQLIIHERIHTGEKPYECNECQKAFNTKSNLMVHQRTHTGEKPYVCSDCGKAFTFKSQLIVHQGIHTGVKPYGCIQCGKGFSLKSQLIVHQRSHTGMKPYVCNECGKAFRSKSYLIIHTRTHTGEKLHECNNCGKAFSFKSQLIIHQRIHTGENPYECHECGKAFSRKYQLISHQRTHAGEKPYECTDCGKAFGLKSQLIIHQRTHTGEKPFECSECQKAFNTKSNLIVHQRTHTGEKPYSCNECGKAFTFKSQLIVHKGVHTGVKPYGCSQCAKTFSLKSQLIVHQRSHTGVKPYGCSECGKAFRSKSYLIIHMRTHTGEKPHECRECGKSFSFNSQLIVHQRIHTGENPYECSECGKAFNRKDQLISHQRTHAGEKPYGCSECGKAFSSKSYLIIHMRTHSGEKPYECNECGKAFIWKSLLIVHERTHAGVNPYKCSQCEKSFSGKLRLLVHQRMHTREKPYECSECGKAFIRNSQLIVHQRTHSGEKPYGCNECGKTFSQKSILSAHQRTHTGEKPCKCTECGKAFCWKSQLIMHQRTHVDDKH
UniProt Q9Y6K9: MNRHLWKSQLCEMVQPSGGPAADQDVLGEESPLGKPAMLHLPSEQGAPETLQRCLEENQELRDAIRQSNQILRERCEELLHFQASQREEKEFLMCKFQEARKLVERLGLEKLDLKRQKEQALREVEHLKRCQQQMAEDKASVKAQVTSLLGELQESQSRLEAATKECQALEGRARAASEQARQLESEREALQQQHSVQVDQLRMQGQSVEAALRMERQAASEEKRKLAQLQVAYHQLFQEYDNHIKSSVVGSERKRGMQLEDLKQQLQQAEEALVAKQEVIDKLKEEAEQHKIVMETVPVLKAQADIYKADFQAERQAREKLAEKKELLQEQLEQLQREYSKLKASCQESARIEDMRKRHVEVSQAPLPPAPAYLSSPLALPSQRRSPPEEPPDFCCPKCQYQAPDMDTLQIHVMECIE

For test [1], the target named is flag-tagged ZNF268a (full length) (UniProt Q14587). Briefly: co-IP; HEK293T transfected with the tagged constructs for 24 h; lysis in 20 mM Tris-HCl pH 7.4, 150 mM NaCl, 10% glycerol, 1% NP-40; immunoprecipitation with anti-flag antibody on Dynabeads Protein G at 4 °C overnight; blot with anti-HA or anti-Myc.
Test [2] deals with T1, endogenous IKKα (human (endogenous in HEK293T)) (UniProt O15111).
T1 sequence: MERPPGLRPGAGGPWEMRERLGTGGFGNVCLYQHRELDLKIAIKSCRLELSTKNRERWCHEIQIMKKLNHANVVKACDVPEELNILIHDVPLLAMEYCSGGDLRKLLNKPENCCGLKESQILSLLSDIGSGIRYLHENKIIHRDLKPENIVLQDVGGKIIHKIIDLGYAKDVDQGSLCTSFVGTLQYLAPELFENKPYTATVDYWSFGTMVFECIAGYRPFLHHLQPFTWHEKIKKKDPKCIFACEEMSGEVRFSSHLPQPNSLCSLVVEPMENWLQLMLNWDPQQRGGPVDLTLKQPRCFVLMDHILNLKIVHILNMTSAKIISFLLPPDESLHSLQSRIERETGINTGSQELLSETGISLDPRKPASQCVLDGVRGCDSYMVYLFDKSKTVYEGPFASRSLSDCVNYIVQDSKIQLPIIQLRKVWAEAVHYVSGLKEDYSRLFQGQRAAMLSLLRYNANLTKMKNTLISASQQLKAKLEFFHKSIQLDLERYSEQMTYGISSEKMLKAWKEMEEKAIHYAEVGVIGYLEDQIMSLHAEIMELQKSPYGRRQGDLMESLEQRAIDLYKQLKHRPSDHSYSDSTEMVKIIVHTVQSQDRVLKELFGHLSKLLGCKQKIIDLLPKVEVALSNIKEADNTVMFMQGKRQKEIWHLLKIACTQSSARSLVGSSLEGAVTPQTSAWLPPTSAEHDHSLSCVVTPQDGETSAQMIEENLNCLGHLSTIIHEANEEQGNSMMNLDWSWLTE
Briefly: co-IP; endogenous proteins, HEK293T with or without SeV infection; immunoprecipitation with anti-IKKα antibody (normal IgG as control).

The target in test [3] is T2, HA-tagged IKKα Kinase domain (KD) (UniProt O15111).
T2 sequence: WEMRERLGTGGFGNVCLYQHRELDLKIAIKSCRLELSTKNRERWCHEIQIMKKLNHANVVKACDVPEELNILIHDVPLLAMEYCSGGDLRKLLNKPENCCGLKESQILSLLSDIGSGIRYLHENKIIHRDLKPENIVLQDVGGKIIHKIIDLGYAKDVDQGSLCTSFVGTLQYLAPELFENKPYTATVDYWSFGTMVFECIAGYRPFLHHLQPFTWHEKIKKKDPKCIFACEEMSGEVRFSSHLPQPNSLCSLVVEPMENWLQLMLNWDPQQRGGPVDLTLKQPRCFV
Nature of the test: co-IP; HEK293T transfected with the tagged constructs; same lysis buffer; immunoprecipitation with anti-HA or anti-Myc antibody; blot with anti-flag.

The next test has as its target T3, HA-tagged IKKα (UniProt O15111).
T3 sequence: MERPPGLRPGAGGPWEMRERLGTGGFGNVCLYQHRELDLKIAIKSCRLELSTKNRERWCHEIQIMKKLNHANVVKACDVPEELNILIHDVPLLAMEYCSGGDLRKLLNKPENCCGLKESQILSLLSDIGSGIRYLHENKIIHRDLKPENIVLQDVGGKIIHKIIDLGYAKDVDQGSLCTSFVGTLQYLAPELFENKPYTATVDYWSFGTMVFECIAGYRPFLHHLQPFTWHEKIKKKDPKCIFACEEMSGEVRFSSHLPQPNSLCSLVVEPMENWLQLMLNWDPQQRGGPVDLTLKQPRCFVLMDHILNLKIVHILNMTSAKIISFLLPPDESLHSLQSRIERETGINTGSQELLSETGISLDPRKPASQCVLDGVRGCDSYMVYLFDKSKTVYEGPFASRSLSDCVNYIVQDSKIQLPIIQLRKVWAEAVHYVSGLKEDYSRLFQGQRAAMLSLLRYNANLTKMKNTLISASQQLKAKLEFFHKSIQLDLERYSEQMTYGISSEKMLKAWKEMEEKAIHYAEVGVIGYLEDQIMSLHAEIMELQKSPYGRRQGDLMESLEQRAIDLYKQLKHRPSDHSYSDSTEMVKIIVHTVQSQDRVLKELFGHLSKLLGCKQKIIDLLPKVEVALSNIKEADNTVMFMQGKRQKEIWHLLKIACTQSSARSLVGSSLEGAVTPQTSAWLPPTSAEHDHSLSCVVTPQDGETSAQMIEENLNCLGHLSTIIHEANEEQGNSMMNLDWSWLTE
Described as above.

The next test has as its target HA-tagged NEMO (UniProt Q9Y6K9). The description is as above.
Test [4] has as its target T1, endogenous IKKα (human (endogenous in HEK293T)). Nature of the test: co-IP; endogenous proteins, wild-type and ZNF268a-knockout HEK293T; endogenous IKKα immunoprecipitated; endogenous IKKβ or NEMO blotted.
Another test concerns the target T4, flag-tagged IKKα (UniProt O15111).
T4 sequence: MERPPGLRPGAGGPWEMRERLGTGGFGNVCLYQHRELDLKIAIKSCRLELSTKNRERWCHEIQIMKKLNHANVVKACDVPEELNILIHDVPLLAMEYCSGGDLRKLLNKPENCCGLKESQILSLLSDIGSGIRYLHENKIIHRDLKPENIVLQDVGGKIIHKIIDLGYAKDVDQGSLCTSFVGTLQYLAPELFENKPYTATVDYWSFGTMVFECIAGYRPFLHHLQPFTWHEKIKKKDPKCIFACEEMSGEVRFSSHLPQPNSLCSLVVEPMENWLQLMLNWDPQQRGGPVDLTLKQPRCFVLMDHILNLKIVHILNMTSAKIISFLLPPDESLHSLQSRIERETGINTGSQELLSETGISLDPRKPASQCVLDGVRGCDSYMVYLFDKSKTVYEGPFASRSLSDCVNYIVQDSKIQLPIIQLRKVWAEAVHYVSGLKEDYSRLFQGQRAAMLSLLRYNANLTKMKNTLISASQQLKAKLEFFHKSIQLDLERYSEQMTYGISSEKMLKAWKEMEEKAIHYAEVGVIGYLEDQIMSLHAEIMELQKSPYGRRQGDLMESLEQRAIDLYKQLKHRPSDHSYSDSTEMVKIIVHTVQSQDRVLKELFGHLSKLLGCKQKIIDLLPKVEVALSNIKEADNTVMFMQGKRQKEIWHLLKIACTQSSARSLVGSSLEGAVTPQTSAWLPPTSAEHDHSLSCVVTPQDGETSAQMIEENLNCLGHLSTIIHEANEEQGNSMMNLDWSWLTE
Nature of the test: co-IP; wild-type and ZNF268a-knockout HEK293T co-transfected with tagged IKKα and Myc-IKKβ or HA-NEMO; exogenous IKKα immunoprecipitated; partner blotted.

Results are given in words; binding and its absence hold for the method and conditions named. In cells and extracts the contact can be indirect. Some binding calls cover weakened binding; strength is not graded here. For some of these results: Sequences can lack the tags named with a protein.

Turning to “HA-tagged NEMO (from UniProt Q9Y6K9 1-419)”, in test [1], the binding entry is recorded as “no binding”.

Turning to “endogenous ZNF268a (from UniProt Q14587-1 1-947)”, the binding entry in test [2] was “binds”.

“flag-tagged ZNF268a (full length) (from UniProt Q14587-1 1-947)”: the binding entry in test [3] is “no binding”; in the test with HA-tagged IKKα, “binds”; in the test with HA-tagged NEMO it was “no binding”.

B1: endogenous IKKβ (protein, UniProt O14920 1-756)
chain: MSWSPSLTTQTCGAWEMKERLGTGGFGNVIRWHNQETGEQIAIKQCRQELSPRNRERWCLEIQIMRRLTHPNVVAARDVPEGMQNLAPNDLPLLAMEYCQGGDLRKYLNQFENCCGLREGAILTLLSDIASALRYLHENRIIHRDLKPENIVLQQGEQRLIHKIIDLGYAKELDQGSLCTSFVGTLQYLAPELLEQQKYTVTVDYWSFGTLAFECITGFRPFLPNWQPVQWHSKVRQKSEVDIVVSEDLNGTVKFSSSLPYPNNLNSVLAERLEKWLQLMLMWHPRQRGTDPTYGPNGCFKALDDILNLKLVHILNMVTGTIHTYPVTEDESLQSLKARIQQDTGIPEEDQELLQEAGLALIPDKPATQCISDGKLNEGHTLDMDLVFLFDNSKITYETQISPRPQPESVSCILQEPKRNLAFFQLRKVWGQVWHSIQTLKEDCNRLQQGQRAAMMNLLRNNSCLSKMKNSMASMSQQLKAKLDFFKTSIQIDLEKYSEQTEFGITSDKLLLAWREMEQAVELCGRENEVKLLVERMMALQTDIVDLQRSPMGRKQGGTLDDLEEQARELYRRLREKPRDQRTEGDSQEMVRLLLQAIQSFEKKVRVIYTQLSKTVVCKQKALELLPKVEEVVSLMNEDEKTVVRLQEKRQKELWNLLKIACSKVRGPVSGSPDSMNASRLSQPGQLMSQPSTASNSLPEPAKKSEELVAEAHNLCTLLENAIQDTVREQDQSFTALDWSWLQTEEEEHSCLEQAS
For the molecule B1, the binding entry in test [4] is “binds”.

B2: Myc-tagged IKKβ (protein, UniProt O14920 1-756)
chain: MSWSPSLTTQTCGAWEMKERLGTGGFGNVIRWHNQETGEQIAIKQCRQELSPRNRERWCLEIQIMRRLTHPNVVAARDVPEGMQNLAPNDLPLLAMEYCQGGDLRKYLNQFENCCGLREGAILTLLSDIASALRYLHENRIIHRDLKPENIVLQQGEQRLIHKIIDLGYAKELDQGSLCTSFVGTLQYLAPELLEQQKYTVTVDYWSFGTLAFECITGFRPFLPNWQPVQWHSKVRQKSEVDIVVSEDLNGTVKFSSSLPYPNNLNSVLAERLEKWLQLMLMWHPRQRGTDPTYGPNGCFKALDDILNLKLVHILNMVTGTIHTYPVTEDESLQSLKARIQQDTGIPEEDQELLQEAGLALIPDKPATQCISDGKLNEGHTLDMDLVFLFDNSKITYETQISPRPQPESVSCILQEPKRNLAFFQLRKVWGQVWHSIQTLKEDCNRLQQGQRAAMMNLLRNNSCLSKMKNSMASMSQQLKAKLDFFKTSIQIDLEKYSEQTEFGITSDKLLLAWREMEQAVELCGRENEVKLLVERMMALQTDIVDLQRSPMGRKQGGTLDDLEEQARELYRRLREKPRDQRTEGDSQEMVRLLLQAIQSFEKKVRVIYTQLSKTVVCKQKALELLPKVEEVVSLMNEDEKTVVRLQEKRQKELWNLLKIACSKVRGPVSGSPDSMNASRLSQPGQLMSQPSTASNSLPEPAKKSEELVAEAHNLCTLLENAIQDTVREQDQSFTALDWSWLQTEEEEHSCLEQAS
Regarding B2, the binding result with flag-tagged IKKα was “binds”.
